Laboratory results published in the supplement of paper PMC10849652.
Some of the results follow.

By UniProt entry, the sequences of proteins in these tests, tags left out. Where a name states a change or a piece, a line headed by the entry shows the natural chain unless it says otherwise.
UniProt Q08357: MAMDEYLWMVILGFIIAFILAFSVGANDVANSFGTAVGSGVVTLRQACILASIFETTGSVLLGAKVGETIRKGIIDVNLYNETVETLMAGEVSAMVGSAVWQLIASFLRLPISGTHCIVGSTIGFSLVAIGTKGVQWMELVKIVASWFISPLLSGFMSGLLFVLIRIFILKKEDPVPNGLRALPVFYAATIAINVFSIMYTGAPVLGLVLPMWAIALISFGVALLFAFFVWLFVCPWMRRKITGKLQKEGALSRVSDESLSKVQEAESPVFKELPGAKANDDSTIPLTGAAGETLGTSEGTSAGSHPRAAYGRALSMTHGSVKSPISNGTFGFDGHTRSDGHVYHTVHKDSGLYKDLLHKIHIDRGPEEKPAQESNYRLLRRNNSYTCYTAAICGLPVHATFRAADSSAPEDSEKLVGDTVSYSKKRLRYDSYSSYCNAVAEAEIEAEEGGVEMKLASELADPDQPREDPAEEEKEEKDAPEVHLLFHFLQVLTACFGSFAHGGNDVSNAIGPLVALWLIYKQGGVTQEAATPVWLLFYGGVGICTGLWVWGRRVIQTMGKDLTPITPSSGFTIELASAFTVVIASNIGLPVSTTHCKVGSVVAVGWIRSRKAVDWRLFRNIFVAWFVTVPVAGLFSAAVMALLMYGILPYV
UniProt Q96BI1: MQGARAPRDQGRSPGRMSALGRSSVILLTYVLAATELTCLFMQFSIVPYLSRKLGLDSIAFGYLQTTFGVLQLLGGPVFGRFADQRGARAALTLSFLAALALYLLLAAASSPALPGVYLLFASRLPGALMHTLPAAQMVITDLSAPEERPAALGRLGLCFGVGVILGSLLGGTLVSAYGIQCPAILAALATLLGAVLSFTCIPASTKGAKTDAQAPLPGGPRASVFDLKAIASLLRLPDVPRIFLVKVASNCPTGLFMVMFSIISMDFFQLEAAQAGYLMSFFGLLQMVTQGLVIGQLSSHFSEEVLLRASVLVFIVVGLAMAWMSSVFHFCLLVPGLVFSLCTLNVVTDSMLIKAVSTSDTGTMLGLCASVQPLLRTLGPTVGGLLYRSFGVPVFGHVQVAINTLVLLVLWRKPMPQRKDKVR
UniProt Q8TAD4: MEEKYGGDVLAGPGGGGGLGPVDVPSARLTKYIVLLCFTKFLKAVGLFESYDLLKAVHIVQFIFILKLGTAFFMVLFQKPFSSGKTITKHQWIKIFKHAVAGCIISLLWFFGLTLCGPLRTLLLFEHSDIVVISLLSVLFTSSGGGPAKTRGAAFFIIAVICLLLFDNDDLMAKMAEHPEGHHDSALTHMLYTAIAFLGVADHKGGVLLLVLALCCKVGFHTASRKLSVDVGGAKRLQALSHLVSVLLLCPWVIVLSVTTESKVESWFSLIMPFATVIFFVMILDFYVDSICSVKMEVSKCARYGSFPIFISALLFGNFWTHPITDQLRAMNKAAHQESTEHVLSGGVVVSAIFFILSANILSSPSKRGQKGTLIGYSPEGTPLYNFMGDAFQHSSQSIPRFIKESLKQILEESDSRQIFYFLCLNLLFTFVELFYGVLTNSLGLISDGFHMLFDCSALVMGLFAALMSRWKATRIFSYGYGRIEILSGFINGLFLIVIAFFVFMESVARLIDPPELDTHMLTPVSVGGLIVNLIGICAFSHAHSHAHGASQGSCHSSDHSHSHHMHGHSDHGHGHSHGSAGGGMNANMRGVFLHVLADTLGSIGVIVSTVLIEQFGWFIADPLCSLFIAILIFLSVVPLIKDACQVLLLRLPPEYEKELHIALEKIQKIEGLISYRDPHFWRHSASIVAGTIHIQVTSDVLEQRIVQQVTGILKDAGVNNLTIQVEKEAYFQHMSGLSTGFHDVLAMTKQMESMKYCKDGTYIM
UniProt Q5BKX6: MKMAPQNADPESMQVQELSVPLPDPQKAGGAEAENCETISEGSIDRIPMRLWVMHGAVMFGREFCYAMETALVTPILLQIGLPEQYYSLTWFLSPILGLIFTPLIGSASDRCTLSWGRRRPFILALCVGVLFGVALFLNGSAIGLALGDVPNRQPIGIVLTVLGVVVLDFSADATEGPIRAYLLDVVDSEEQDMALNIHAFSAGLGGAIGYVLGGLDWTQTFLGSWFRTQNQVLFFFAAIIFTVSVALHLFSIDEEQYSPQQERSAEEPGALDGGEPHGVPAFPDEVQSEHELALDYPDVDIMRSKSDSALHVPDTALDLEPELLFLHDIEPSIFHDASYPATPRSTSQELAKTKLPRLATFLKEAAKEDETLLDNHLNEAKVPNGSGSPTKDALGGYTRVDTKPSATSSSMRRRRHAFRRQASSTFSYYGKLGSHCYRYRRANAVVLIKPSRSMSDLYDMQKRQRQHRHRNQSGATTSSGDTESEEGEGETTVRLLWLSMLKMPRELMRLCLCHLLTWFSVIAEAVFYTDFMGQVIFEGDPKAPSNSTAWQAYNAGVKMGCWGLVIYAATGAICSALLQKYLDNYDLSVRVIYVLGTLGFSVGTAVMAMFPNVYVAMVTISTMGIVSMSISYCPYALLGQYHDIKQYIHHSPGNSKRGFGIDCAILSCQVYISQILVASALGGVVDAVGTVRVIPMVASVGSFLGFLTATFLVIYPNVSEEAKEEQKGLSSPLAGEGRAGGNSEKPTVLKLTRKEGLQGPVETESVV
UniProt Q02978: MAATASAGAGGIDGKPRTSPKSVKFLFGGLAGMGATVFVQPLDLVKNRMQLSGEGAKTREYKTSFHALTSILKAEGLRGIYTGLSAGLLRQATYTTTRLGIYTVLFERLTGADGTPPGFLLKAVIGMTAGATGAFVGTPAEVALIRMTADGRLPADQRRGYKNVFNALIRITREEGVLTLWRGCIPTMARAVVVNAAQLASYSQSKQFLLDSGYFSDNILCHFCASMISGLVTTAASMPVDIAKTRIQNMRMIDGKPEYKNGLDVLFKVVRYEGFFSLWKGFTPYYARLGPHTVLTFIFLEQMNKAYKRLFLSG
UniProt Q14542: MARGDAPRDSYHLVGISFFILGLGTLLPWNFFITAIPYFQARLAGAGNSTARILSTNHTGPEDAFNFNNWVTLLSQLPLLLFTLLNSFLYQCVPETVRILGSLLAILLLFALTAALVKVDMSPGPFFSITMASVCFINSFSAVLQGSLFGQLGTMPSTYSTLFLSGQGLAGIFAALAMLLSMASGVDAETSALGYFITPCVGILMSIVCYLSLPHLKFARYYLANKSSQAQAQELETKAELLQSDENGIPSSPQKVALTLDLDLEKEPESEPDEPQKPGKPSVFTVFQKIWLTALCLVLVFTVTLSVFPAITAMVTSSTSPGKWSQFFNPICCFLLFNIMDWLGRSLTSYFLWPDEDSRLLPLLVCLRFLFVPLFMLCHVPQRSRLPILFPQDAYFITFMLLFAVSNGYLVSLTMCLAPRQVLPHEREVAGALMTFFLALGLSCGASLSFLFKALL
UniProt Q9HC21: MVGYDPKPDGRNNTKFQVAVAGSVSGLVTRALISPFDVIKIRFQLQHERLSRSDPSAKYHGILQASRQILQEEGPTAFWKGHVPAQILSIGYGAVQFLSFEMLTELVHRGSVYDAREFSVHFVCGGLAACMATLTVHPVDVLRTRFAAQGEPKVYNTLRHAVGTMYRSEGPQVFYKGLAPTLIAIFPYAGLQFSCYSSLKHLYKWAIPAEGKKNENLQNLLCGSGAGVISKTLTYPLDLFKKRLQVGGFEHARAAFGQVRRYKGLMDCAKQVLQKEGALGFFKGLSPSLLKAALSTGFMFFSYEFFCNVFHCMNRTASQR
UniProt O43772: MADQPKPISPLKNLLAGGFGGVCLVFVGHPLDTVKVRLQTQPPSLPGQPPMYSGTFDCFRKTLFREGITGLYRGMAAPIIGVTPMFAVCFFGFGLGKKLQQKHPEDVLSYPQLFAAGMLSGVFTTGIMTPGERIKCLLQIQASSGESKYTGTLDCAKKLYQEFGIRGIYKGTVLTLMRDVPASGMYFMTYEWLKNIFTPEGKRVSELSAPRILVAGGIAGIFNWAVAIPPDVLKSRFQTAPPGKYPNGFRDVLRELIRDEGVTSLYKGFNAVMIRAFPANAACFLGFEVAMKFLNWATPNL
UniProt Q9Y6M5: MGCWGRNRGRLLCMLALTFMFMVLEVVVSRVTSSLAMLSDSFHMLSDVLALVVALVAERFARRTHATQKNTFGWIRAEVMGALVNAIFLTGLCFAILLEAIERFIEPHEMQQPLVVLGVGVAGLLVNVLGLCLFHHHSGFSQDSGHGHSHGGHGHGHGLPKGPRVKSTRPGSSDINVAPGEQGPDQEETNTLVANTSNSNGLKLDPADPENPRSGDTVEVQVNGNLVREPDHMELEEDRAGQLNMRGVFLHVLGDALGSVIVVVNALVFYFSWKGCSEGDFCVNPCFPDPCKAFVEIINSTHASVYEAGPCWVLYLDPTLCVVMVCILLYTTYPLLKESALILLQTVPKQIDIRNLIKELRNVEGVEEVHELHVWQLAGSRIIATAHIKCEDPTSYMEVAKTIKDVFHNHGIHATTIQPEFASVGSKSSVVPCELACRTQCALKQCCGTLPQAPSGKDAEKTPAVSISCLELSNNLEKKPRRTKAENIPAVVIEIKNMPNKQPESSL
UniProt Q9UBX3: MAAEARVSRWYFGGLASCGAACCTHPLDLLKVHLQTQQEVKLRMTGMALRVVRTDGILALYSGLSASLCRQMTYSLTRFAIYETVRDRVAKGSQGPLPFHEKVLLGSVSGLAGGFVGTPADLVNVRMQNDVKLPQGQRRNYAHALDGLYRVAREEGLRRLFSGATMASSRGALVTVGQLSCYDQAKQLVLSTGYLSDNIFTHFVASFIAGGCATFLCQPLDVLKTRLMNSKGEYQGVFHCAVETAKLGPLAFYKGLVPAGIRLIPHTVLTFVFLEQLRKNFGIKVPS
UniProt Q96K37: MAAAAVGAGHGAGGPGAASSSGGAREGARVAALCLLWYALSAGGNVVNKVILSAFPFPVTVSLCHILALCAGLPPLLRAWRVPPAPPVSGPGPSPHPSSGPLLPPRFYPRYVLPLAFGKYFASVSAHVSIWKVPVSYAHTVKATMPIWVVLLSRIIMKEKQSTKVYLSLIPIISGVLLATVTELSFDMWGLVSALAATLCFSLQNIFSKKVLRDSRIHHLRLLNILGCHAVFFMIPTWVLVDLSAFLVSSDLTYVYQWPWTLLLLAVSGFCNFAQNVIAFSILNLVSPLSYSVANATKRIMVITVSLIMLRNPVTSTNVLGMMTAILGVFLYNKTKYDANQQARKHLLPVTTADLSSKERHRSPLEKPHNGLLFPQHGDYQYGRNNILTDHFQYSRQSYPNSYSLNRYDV
UniProt Q9NYZ2: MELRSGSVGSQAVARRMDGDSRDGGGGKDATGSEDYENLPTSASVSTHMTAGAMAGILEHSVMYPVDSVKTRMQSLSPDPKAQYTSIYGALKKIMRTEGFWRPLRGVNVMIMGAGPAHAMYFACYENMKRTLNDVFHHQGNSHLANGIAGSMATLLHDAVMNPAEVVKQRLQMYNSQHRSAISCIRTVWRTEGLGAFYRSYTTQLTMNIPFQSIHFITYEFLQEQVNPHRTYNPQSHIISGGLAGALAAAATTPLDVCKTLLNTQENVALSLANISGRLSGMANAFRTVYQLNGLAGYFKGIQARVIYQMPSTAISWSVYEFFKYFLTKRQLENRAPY
UniProt P02730: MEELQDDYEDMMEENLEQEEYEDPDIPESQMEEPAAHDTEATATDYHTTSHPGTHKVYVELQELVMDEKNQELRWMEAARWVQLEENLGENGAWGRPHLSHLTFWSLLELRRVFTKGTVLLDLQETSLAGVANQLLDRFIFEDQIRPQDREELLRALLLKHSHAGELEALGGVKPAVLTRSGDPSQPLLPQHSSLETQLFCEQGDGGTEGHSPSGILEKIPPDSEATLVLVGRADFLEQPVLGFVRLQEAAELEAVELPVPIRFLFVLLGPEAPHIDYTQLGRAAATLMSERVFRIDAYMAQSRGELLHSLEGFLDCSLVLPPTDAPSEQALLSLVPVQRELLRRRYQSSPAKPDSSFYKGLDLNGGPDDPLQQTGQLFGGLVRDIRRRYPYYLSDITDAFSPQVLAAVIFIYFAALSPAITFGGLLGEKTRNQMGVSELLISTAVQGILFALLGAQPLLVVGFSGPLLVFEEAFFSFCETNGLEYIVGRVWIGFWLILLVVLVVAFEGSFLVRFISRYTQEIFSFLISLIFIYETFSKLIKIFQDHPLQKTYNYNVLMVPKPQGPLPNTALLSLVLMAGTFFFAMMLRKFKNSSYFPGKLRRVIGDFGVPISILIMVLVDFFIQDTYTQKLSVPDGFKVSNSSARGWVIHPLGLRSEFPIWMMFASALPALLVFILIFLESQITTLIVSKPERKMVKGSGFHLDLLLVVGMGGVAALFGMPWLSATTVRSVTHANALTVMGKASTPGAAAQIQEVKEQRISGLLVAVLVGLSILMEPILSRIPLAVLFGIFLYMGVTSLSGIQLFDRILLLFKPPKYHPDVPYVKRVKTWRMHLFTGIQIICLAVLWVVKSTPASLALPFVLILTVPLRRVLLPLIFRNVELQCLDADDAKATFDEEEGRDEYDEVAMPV

What was measured:
Test in all cases: log2 fold change, soluble protein after heating vs DMSO (PISA); higher = thermal stabilisation; K562 cells, 10 uM, 30 min; active = over 0.2 and 3.5 SD of the protein, either way, in both replicates (recomputed)
[1] = compound: CC[C@@H]1C(=O)N(C)c2cnc(Nc3ccc(C(=O)NC4CCN(C)CC4)cc3OC)nc2N1C1CCCC1
Outline: (§1)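 Aliquots of K562 cells (2×10^6 cells/mL) treated with 10 μM compound for 30 min were heated for 3 min over 48°C-58°C. After pooling and extraction in PBS with 0.5% NP-40 at 4°C, soluble protein from a 21,000xg, 90 min spin was quantified by TMTpro 16plex LC-MS/MS with channel sums equalised. Thermal stability is expressed against control samples, from duplicates, as a log2 fold change.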

[2] = compound: CC[C@@H]1C(=O)N(C)c2cnc(Nc3ccc(C(=O)N[C@H]4CC[C@H](N5CCN(CC6CC6)CC5)CC4)cc3OC)nc2N1C(C)C [volasertib]
Outline: as §1

[3] = compound: CC[C@H](C)N1C=C(C2=C(C=C(C=C21)C3=CN=C(C=C3)N4CCNCC4)C(=O)NCC5=C(C=C(NC5=O)C)C)C
Outline: as §1

[4] = compound: CC[C@H](C)[C@@H](C(=O)N[C@@H]([C@@H](C)O)C(=O)N[C@@H](CC(C)C)C(=O)[C@]1(CO1)C)NC(=O)[C@H]([C@@H](C)CC)N(C)C(=O)C [epoxomicin]
Outline: as §1

[5] = compound: CCn1c(C(=O)N(C2CC2)C2CC2)cc2c3c(ncn3C)c(Nc3cc(C)n(C)n3)nc21
Outline: as §1

[6] = compound: CCn1cc(-c2ccnc3[nH]c(-c4cccc(CN(C)C)c4)cc23)c(-c2ccc(NC(=O)N(C)C)cc2)n1
Outline: as §1

[7] = compound: CN(C)CC(=O)Nc1ccc2[nH]c(=O)c3ccccc3c2c1
Outline: as §1

[8] = compound: CN(CCOC1=CC=C(C=C1)C[C@H]2C(=O)NC(=O)S2)C3=CC=CC=N3 (racemic) [rosiglitazone]
Outline: as §1

[9] = compound: CN1C2=C(C3=C1C(=O)N(N=C3)CC4=CC(=CC=C4)N)SC(=C2)S(=O)C
Outline: as §1

[10] = compound: CN1CCC(CNc2ccc3ncc(-c4cccc(OC(F)(F)F)c4)n3n2)CC1
Outline: as §1

[11] = compound: CN1CCN(CCOc2cc(OC3CCOCC3)c3c(Nc4c(Cl)ccc5c4OCO5)ncnc3c2)CC1 [saracatinib]
Outline: as §1

[12] = compound: CN1CCN(c2nc(C3=C(c4c[nH]c5ccccc45)C(=O)NC3=O)c3ccccc3n2)CC1 [sotrastaurin]
Outline: as §1

[13] = compound: CN1CC[C@H](c2c(O)cc(O)c3c(=O)cc(-c4ccccc4Cl)oc23)[C@H](O)C1 [alvocidib]
Outline: as §1

[14] = compound: CN1CCc2c(c3ccccc3n2Cc2ccc(C(=O)NO)cc2)C1 [Tubastatin A]
Outline: as §1

[15] = compound: CNC(=O)C1=CC=CC=C1NC2=NC(=NC=C2Cl)NC3=C(C=C(C=C3)N4CCOCC4)OC
Outline: as §1

[16] = compound: CNC(=O)c1ccc(Nc2ncc(C(F)(F)F)c(NCc3nccnc3N(C)S(C)(=O)=O)n2)cc1 [defactinib]
Outline: as §1

[17] = compound: CNCc1ccc(-c2[nH]c3cc(F)cc4c3c2CCNC4=O)cc1 [rucaparib]
Outline: as §1

[18] = compound: CNc1nc(-c2ccc3c(N)n[nH]c3c2)cc(N2C[C@@H](C(=O)NC3CCCCC3)CC[C@H]2C)n1
Outline: as §1

[19] = compound: COC(=O)N[C@@H](C)CNc1nccc(-c2cn(C(C)C)nc2-c2cc(Cl)cc(NS(C)(=O)=O)c2F)n1 [encorafenib]
Outline: as §1

[20] = compound: COC(=O)[C@H](CCSC)NC(=O)C1=C(C=C(C=C1)NC[C@H](CS)N)C2=CC=CC=C2
Outline: as §1

Measured: log2 fold change

SLC20A2 (UniProt Q08357)
inactive: [1] 0.105 | [2] 0.035 | [3] 0.013 | [4] -0.046 | [5] 0.013 | [6] -0.048 | [7] 0.016 | [8] -0.015 | [9] -0.063 | [10] -0.07 | [11] 0.01 | [12] 0.08 | [13] -0.019 | [14] -0.095 | [15] 0.059 | [16] -0.099 | [17] -0.037 | [18] -0.051 | [19] 0.008 | [20] -0.033

SLC22A18 (UniProt Q96BI1)
inactive: [1] 0.021 | [2] -0.029 | [3] -0.067 | [4] -0.034 | [5] 0.076 | [6] -0.053 | [7] 0.024 | [8] -0.005 | [9] 0.006 | [10] 0.048 | [11] 0.058 | [12] 0.056 | [13] -0.128 | [14] -0.019 | [15] 0.022 | [16] -0.022 | [17] -0.046 | [18] -0.009 | [19] -0.012 | [20] -0.018

SLC25A12 (UniProt O75746)
inactive: [1] 0.011 | [2] 0.033 | [3] -0.034 | [4] -0.004 | [5] 0.011 | [6] 0.001 | [7] -0.027 | [8] 0.003 | [9] -0.022 | [10] 0.003 | [11] 0.048 | [12] 0.058 | [13] 0.004 | [14] -0.029 | [15] -0.006 | [16] -0.004 | [17] -0.05 | [18] -0.011 | [19] -0.021 | [20] -0.003

SLC30A5 (UniProt Q8TAD4)
inactive: [1] -0.011 | [2] -0.055 | [3] 0.017 | [4] 0.013 | [5] 0.019 | [6] 0.001 | [7] 0 | [8] 0.168 | [9] 0.002 | [10] 0.135 | [11] -0.022 | [12] 0.08 | [13] -0.089 | [14] 0 | [15] -0.1 | [16] -0.108 | [17] -0.05 | [18] 0.015 | [19] 0.049 | [20] -0.028

SLC45A4 isoform 3 (UniProt Q5BKX6)
inactive: [1] 0.069 | [2] 0.047 | [3] -0.084 | [4] -0.041 | [5] 0.006 | [6] -0.091 | [7] -0.037 | [8] 0.031 | [9] -0.079 | [10] 0.199 | [11] 0.043 | [12] -0.032 | [13] 0.053 | [14] -0.111 | [15] -0.068 | [16] 0.004 | [17] 0.181 | [18] -0.058 | [19] 0.012 | [20] 0.048

Two consecutive records already listed, for reference:
SLC20A2 (UniProt Q08357)
inactive: [1] 0.105 | [2] 0.035 | [3] 0.013 | [4] -0.046 | [5] 0.013 | [6] -0.048 | [7] 0.016 | [8] -0.015 | [9] -0.063 | [10] -0.07 | [11] 0.01 | [12] 0.08 | [13] -0.019 | [14] -0.095 | [15] 0.059 | [16] -0.099 | [17] -0.037 | [18] -0.051 | [19] 0.008 | [20] -0.033

SLC22A18 (UniProt Q96BI1)
inactive: [1] 0.021 | [2] -0.029 | [3] -0.067 | [4] -0.034 | [5] 0.076 | [6] -0.053 | [7] 0.024 | [8] -0.005 | [9] 0.006 | [10] 0.048 | [11] 0.058 | [12] 0.056 | [13] -0.128 | [14] -0.019 | [15] 0.022 | [16] -0.022 | [17] -0.046 | [18] -0.009 | [19] -0.012 | [20] -0.018

More entries follow.

SLC25A11 (UniProt Q02978)
inactive: [1] 0.025 | [2] 0.063 | [3] -0.05 | [4] 0.01 | [5] 0.003 | [6] -0.011 | [7] -0.033 | [8] -0.005 | [9] -0.008 | [10] 0.08 | [11] 0.057 | [12] 0.043 | [13] 0.011 | [14] -0.015 | [15] -0.003 | [16] 0.011 | [17] 0 | [18] -0.042 | [19] 0.004 | [20] -0.002

SLC29A2 (UniProt Q14542)
inactive: [1] 0.085 | [2] 0.083 | [3] -0.024 | [4] -0.009 | [5] -0.084 | [6] -0.177 | [7] -0.014 | [8] -0.048 | [9] 0.023 | [10] 0.214 | [11] 0.043 | [12] 0.012 | [13] 0.093 | [14] 0.017 | [15] -0.094 | [16] -0.047 | [17] -0.102 | [18] 0.141 | [19] 0.006 | [20] 0.069

SLC25A19 (UniProt Q9HC21)
inactive: [1] 0.04 | [2] 0.042 | [3] -0.028 | [4] -0.006 | [5] 0.04 | [6] -0.017 | [7] -0.028 | [8] 0.008 | [9] -0.042 | [10] 0.053 | [11] 0.031 | [12] 0.037 | [13] 0 | [14] -0.092 | [15] 0.009 | [16] -0.017 | [17] -0.025 | [18] -0.054 | [19] -0.033 | [20] 0.019

SLC25A46 (UniProt Q96AG3)
inactive: [1] 0.021 | [2] 0.049 | [3] 0.007 | [4] 0.007 | [5] -0.02 | [6] -0.073 | [7] -0.026 | [8] 0.026 | [9] 0.001 | [10] -0.012 | [11] 0.184 | [12] 0.094 | [13] 0.026 | [14] 0.081 | [15] -0.026 | [16] 0.002 | [17] 0.062 | [18] -0.053 | [19] -0.018 | [20] 0.016

SLC25A20 (UniProt O43772)
inactive: [1] 0.062 | [2] 0.01 | [3] -0.056 | [4] -0.029 | [5] 0.02 | [6] 0.001 | [7] -0.017 | [8] 0.001 | [9] -0.003 | [10] 0.107 | [11] 0.032 | [12] 0.032 | [13] -0.006 | [14] -0.067 | [15] -0.015 | [16] 0.001 | [17] -0.02 | [18] -0.016 | [19] 0.022 | [20] 0.026

SLC30A1 (UniProt Q9Y6M5)
inactive: [1] 0.041 | [2] 0.081 | [3] -0.037 | [4] -0.042 | [5] 0.006 | [6] -0.034 | [7] -0.004 | [8] -0.026 | [9] -0.054 | [10] 0.149 | [11] 0.062 | [12] -0.025 | [13] -0.022 | [14] -0.025 | [15] -0.024 | [16] -0.029 | [17] -0.004 | [18] -0.021 | [19] -0.016 | [20] 0.025

SLC25A10 isoform 2 (UniProt Q9UBX3)
inactive: [1] 0.007 | [2] 0.053 | [3] -0.054 | [4] -0.009 | [5] 0.02 | [6] -0.038 | [7] 0.007 | [8] -0.001 | [9] -0.016 | [10] 0.133 | [11] 0.084 | [12] -0.003 | [13] -0.009 | [14] -0.008 | [15] -0.006 | [16] -0.026 | [17] -0.016 | [18] 0.001 | [19] 0.017 | [20] 0.003

SLC35E1 (UniProt Q96K37)
inactive: [1] -0.166 | [2] -0.097 | [3] -0.011 | [4] -0.037 | [5] 0.137 | [6] -0.012 | [7] 0.049 | [8] 0.04 | [9] 0.081 | [10] 0.051 | [11] -0.042 | [13] 0.057 | [14] 0.001 | [15] -0.056 | [16] -0.01 | [17] -0.066 | [18] 0.027 | [19] 0.115 | [20] 0.049

SLC25A37 (UniProt Q9NYZ2)
inactive: [1] 0.079 | [2] 0.032 | [3] -0.039 | [4] -0.025 | [5] 0.008 | [6] 0.003 | [7] -0.04 | [8] -0.065 | [9] -0.028 | [10] 0.094 | [11] 0.169 | [12] 0.12 | [13] 0.086 | [14] 0.044 | [15] -0.039 | [16] -0.075 | [17] 0.05 | [18] 0.008 | [19] -0.057 | [20] 0.025

SLC39A14 (UniProt Q15043)
inactive: [1] -0.002 | [2] 0.259 | [3] -0.012 | [4] -0.052 | [5] 0.074 | [6] -0.02 | [7] -0.023 | [8] -0.024 | [9] -0.047 | [10] -0.139 | [11] 0.007 | [12] 0.034 | [13] 0.024 | [14] 0.005 | [15] -0.033 | [16] -0.014 | [17] -0.04 | [18] -0.008 | [19] -0.023 | [20] 0.055

SLC4A1 (UniProt P02730)
inactive: [1] 0.01 | [2] -0.098 | [3] -0.153 | [4] 0.004 | [5] 0.011 | [6] -0.051 | [7] -0.003 | [8] -0.082 | [9] -0.075 | [10] 0.095 | [11] 0.044 | [12] 0.097 | [13] -0.006 | [14] -0.053 | [15] 0.011 | [16] -0.198 | [17] -0.002 | [18] -0.02 | [19] -0.063 | [20] 0.11
